Experimental data: patent US20200254065A1, “LONG-ACTING GLP-2 ANALOGS” (OPKO Biologics Ltd., priority 2019, published 2020)
At least one compound was matched to its structure with a doubt left. Numbered stars: 1 amine (or outer) side, 2 acyl side, 3 side chain; on linkers, the order of the positions; unused ones are H or OH. Square brackets hold non-standard residues; d marks the D form. Peptide text beside a SMILES is read from it. * marks the point of attachment. X2 = O=C(OCC1c2cc(N[*:1])ccc2-c2ccc(S(=O)(=O)O)cc21)[*:2]; X1 = N[C@@H](CSC1CC(=O)N(CCC(=O)*)C1=O)C(=O)O; Nle = CCCC[C@H](N)C(=O)O

Experiments:
small intestine = assay: Intestine weight model in rats; assay type: in vivo, SD rats; conditions: Study 15205; single SC 0.5, 2.0 or 8.0 mg/kg; Days 3, 7 and 14
Experimental: In the pharmacology study, the conjugates were injected subcutaneously twice, on days 1 and 3 at 1 mg/kg (peptide dose) and intestine weight was performed on day 6. In addition to the PEGylated conjugates, GLP-2-Gly2 was injected at the same dose and regimen for comparison. The average of the intestine weight of each group was compared to that of the vehicle group.
In a different study, several of the PEGylated teduglutide were injected as a single dose at 1 mg/kg and the intestine weight performed on day 6.
Pharmacology and pharmacokinetic studies were performed with the most promising GLP-2 variants to evaluate their efficacy and longevity, respectively. […]
In addition to PEG30-FMS-V4 and PEG30-Fmoc-V4 that have been pharmacology evaluated by small intestinal weight evaluation (As shown in Example 5), four other reversible PEGylated variant 4 (“V4”) conjugates and two reversible linker-V4 conjugates were synthesized. […] Therefore, slices from three areas of the intestine (duodenum, jejunum and ilium) were stained with hematoxylin and eosin and at least 7 Crypts+Villi length/slice were measured. The averaged Villi+Crypt length of each treatment group (n=6) was compared to the vehicle group (negative control) and calculated as percentage increase over vehicle. […]

[1] = tested on: intestine epithelium (crypts plus villi); assay: Crypts plus villi length, histopathology of small intestine; assay type: in vivo, SD rats; conditions: Study 15203; single SC 2 mg/kg on Day 1; Days 6 and 10
Experimental: In addition to PEG30-FMS-V4 and PEG30-Fmoc-V4 that have been pharmacology evaluated by small intestinal weight evaluation (As shown in Example 5), four other reversible PEGylated variant 4 (“V4”) conjugates and two reversible linker-V4 conjugates were synthesized. All the above were injected to 6 normal SD rats/group once at 2 mg/kg (peptide dose), while on the 6th day, animals were scarified, and the small intestine was weighted followed by histopathology evaluation. […] Therefore, slices from three areas of the intestine (duodenum, jejunum and ilium) were stained with hematoxylin and eosin and at least 7 Crypts+Villi length/slice were measured. The averaged Villi+Crypt length of each treatment group (n=6) was compared to the vehicle group (negative control) and calculated as percentage increase over vehicle. […]
An additional study to evaluate the efficacy and the longevity of V4 and Cys-FMS-V4 was conducted (Study reference 15204) in which the animals were sacrificed on Days 6 (N=6), 10 (N=4) and 14 (N=4). This experiment measured the pharmacological response compared to the commercially approved SBS treatment drug Gattex. In addition, two new conjugates were tested by conjugating V4 to reduced OSu-linker and Cys-FMS-V4 purified from resin. […]

Structure (SMILES): CCCC[C@H](NC(=O)[C@H](CCC(=O)O)NC(=O)[C@H](CC(=O)O)NC(=O)[C@H](CO)NC(=O)[C@H](Cc1ccccc1)NC(=O)[C@H](CO)NC(=O)CNC(=O)[C@H](CCC(=O)O)NC(=O)CNC(=O)[C@H](Cc1c[nH]cn1)NC(=O)OCC1c2cc(NC(=O)CCN3C(=O)CC(SC[C@H](N)C(=O)O)C3=O)ccc2-c2ccc(S(=O)(=O)O)cc21)C(=O)N[C@@H](CC(N)=O)C(=O)N[C@H](C(=O)N[C@H](C(=O)N[C@@H](CC(C)C)C(=O)N[C@@H](CC(=O)O)C(=O)N[C@@H](CC(C)C)C(=O)N[C@@H](CC(C)C)C(=O)N[C@@H](C)C(=O)N[C@@H](C)C(=O)N[C@@H](CCCNC(=N)N)C(=O)N[C@@H](CC(=O)O)C(=O)N[C@@H](Cc1ccccc1)C(=O)N[C@H](C(=O)N[C@@H](CC(N)=O)C(=O)N[C@@H](Cc1c[nH]c2ccccc12)C(=O)N[C@@H](CC(C)C)C(=O)N[C@H](C(=O)N[C@@H](CCC(N)=O)C(=O)N[C@H](C(=O)N[C@@H](CCCCN)C(=O)N[C@H](C(=O)N[C@H](C(=O)N[C@@H](CC(=O)O)C(N)=O)[C@@H](C)O)[C@@H](C)CC)[C@@H](C)O)[C@@H](C)CC)[C@@H](C)CC)[C@@H](C)CC)[C@@H](C)O (some centres unmarked) [Cys-FMS-V4] (X1-[X2]HGEGSFSDE[Nle]NTILDLLAARDFINWLIQTKITD-NH2)
- Small intestine weight percent increase over vehicle (FIG. 15) (small intestine): reached maximal acute response at day 3
- Crypts plus villi length percent increase over vehicle (FIG. 13) [1]: prolonged activity 10 days following a single SC injection
